Patent US20050203007A1
No constants are given. Whether binding was seen depends on the method and setting. Some entries that bind do so weakly or less than the wild type.

T1: human PC7 (human) (UniProt Q16549)
T1 sequence (looked up): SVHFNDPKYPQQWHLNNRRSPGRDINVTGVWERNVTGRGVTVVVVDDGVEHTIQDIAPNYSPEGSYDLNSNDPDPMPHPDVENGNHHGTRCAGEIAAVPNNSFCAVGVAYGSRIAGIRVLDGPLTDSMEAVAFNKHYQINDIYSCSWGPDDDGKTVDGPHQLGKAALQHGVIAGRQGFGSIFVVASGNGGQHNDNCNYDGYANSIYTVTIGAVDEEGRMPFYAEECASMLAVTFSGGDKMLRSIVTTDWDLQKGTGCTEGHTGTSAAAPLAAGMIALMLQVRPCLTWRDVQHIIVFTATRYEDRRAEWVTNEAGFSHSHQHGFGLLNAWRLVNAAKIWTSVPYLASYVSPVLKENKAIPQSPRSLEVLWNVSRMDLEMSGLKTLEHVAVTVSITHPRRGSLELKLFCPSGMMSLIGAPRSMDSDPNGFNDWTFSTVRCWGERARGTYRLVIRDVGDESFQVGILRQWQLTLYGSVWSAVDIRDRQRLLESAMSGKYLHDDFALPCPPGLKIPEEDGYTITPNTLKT

B1: Trp49-R4R1-eglin (designed binder)
chain: SMGSELKSFPEVVGKTVDQAREYFTLHYPQYDVYFLPEGSRVTRDLRWNRVRVFYNPGTNVVNHVPHVG
B2: Tyr49Ala-R4R1-eglin (designed binder)
chain: SMGSELKSFPEVVGKTVDQAREYFTLHYPQYDVYFLPEGSRVTRDLRANRVRVFYNPGTNVVNHVPHVG
B3: Val49-R4R1-eglin (Tyr49 to Val) (designed binder)
chain: SMGSELKSFPEVVGKTVDQAREYFTLHYPQYDVYFLPEGSRVTRDLRVNRVRVFYNPGTNVVNHVPHVG
B4: Met49-R4R1-eglin (designed binder)
chain: SMGSELKSFPEVVGKTVDQAREYFTLHYPQYDVYFLPEGSRVTRDLRMNRVRVFYNPGTNVVNHVPHVG
B5: Pro38Leu Tyr49Cys R4R1-eglin (designed binder)
chain: SMGSELKSFPEVVGKTVDQAREYFTLHYPQYDVYFLLEGSRVTRDLRCNRVRVFYNPGTNVVNHVPHVG

target: T1, human PC7 (human); assay: Ki of purified variants

binding, binds:
B1

target: T1, human PC7 (human); assay: rapid inhibition assay; listed as potent inhibitor of PC7

binding, binds:
B2
B3
B4
B1
B5
